Experimental data as given in patent US20180016538A1, “APPARATUS, SYSTEMS AND METHODS FOR PROGRAMMABLE TISSUE CULTURE ILLUMINATION” (Regents of the University of California, priority 2016, published 2018).
At least one structure is not confirmed: it was looked up by name or label, or the drawing left a doubt.

Test system: Ras/Erk pathway
Experiment: Ras/Erk pathway signal transmission in wild-type NIH 3T3 cells with optoSOS inputs, with or without drug
Assay type: cell-based
Details: 100 μM SB590885

CN(C)CCOc1ccc(-c2nc(-c3ccncc3)c(-c3ccc4c(c3)CC/C4=N\O)[nH]2)cc1 [SB590885]
Ras/Erk pathway decay kinetics: extended | basal ppErk levels: minimally elevating
